The supplement of paper PMC12823440, “Inhibitors supercharge kinase turnover through native proteolytic circuits” (Nature, 2025)
Structures can show the parent of a compound that is named as a salt. Some of the results follow. The calls rarely recur for the same compound in another form.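 Kinases were expressed as nanoluciferase fusions in K562 cells and luminescence was read every 4 h between 2 and 18 h as percent of control, DMSO set to 100% and a positive control to 0%. A time point counts as decreased when the signal drops significantly (2 sigma). The hit call is the authors' own, does not follow from the count of time points alone, and its rule is not shown.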

Chains of the proteins cited; added tags and fusions are not shown. Lines headed by an entry give the natural chain unless they say otherwise; changes in a name come on top.
UniProt P21860, whole entry: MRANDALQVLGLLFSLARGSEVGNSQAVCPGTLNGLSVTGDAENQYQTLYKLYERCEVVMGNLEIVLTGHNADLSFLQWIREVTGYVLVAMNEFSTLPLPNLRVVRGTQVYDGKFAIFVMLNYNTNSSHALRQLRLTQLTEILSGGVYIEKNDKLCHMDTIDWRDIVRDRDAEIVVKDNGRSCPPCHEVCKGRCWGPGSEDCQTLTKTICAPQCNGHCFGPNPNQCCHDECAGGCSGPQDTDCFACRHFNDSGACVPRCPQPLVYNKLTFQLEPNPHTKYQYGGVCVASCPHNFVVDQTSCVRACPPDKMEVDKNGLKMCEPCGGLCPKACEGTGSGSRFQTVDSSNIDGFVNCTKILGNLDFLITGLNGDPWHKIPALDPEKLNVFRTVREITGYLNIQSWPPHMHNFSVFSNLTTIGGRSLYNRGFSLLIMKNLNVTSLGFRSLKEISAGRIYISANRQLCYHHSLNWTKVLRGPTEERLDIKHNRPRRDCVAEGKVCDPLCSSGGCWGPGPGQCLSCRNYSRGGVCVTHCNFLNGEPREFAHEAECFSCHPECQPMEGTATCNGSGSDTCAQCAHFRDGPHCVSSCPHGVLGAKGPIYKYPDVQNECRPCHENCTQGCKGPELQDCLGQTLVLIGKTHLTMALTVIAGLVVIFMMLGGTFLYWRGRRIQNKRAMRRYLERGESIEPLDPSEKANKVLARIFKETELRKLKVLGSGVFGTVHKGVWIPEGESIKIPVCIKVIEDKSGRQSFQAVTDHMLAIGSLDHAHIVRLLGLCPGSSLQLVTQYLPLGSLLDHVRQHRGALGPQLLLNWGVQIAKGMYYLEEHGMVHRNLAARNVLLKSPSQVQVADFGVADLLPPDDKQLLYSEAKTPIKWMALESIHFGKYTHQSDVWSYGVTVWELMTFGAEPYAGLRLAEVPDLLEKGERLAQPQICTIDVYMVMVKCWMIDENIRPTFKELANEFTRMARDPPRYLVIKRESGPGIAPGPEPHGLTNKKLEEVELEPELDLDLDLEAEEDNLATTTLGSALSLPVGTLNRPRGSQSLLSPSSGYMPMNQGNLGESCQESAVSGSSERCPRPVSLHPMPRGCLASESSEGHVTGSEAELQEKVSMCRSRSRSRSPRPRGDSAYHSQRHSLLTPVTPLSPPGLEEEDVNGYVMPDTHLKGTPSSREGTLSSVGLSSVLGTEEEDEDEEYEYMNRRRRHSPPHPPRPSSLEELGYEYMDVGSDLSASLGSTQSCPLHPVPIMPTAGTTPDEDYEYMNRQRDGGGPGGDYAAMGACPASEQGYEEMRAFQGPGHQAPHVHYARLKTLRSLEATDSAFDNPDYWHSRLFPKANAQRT
UniProt P11362, whole entry, looked up: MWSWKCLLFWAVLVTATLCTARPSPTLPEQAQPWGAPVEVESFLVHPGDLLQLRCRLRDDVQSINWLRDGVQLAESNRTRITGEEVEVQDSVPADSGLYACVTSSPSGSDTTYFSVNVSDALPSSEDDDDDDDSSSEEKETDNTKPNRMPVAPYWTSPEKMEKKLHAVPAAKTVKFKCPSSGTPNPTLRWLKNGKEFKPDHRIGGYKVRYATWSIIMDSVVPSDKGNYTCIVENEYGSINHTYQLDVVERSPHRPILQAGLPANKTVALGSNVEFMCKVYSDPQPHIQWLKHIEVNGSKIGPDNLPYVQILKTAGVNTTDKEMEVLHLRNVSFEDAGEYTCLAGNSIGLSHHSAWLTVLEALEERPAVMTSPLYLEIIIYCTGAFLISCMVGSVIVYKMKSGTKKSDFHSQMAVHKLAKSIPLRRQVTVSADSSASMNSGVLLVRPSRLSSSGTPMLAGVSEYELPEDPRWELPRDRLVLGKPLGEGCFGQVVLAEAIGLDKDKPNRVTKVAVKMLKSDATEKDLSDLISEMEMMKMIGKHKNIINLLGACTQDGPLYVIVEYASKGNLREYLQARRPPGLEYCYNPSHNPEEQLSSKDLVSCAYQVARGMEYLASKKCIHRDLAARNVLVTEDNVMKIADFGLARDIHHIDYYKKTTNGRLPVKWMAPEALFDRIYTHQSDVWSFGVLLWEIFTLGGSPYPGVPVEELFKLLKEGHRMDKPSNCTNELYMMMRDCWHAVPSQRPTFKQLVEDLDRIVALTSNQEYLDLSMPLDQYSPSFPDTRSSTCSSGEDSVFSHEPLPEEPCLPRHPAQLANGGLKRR
UniProt P21802, whole entry, looked up: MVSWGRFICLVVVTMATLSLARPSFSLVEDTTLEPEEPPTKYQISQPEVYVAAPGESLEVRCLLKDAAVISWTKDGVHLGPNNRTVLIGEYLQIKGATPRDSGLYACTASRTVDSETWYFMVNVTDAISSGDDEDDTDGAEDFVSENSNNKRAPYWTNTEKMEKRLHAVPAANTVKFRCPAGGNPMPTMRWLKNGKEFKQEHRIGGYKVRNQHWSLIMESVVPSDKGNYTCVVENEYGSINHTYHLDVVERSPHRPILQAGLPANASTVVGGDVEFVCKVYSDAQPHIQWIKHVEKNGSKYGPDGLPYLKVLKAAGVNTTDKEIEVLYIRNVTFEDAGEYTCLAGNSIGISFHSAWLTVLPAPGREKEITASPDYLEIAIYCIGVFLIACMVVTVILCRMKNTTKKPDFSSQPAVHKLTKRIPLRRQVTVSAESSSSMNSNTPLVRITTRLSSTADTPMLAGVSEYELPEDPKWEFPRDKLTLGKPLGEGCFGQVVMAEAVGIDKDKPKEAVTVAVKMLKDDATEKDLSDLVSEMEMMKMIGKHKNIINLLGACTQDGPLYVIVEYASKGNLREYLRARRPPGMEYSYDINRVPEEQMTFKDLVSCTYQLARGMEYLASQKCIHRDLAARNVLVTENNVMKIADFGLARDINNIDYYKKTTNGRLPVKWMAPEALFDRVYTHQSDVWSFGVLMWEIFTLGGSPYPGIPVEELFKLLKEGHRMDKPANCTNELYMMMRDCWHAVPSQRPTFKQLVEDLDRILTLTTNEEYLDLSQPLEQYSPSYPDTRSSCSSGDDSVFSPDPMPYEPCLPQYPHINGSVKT
UniProt P22607, whole entry, looked up: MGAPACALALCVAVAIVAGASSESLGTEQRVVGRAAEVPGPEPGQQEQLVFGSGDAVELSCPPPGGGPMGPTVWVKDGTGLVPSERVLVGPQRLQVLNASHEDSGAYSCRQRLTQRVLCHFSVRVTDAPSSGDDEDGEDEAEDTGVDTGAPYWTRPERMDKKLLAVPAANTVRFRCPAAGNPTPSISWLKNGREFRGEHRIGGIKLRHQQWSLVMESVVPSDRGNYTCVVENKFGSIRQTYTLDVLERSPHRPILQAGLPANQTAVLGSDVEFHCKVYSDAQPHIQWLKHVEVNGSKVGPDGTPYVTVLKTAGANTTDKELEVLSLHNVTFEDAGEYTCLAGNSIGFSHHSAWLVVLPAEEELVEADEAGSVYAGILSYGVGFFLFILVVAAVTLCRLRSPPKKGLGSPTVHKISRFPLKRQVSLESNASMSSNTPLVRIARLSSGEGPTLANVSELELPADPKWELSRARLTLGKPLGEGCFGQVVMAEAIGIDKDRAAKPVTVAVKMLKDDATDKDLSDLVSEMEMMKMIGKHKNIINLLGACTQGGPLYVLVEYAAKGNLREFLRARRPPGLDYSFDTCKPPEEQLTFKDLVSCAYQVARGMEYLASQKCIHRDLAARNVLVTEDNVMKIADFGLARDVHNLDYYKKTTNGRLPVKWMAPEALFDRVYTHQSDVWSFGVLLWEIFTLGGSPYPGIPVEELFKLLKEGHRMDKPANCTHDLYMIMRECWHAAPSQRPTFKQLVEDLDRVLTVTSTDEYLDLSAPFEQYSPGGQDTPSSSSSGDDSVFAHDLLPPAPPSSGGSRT
UniProt P06241, whole entry, looked up: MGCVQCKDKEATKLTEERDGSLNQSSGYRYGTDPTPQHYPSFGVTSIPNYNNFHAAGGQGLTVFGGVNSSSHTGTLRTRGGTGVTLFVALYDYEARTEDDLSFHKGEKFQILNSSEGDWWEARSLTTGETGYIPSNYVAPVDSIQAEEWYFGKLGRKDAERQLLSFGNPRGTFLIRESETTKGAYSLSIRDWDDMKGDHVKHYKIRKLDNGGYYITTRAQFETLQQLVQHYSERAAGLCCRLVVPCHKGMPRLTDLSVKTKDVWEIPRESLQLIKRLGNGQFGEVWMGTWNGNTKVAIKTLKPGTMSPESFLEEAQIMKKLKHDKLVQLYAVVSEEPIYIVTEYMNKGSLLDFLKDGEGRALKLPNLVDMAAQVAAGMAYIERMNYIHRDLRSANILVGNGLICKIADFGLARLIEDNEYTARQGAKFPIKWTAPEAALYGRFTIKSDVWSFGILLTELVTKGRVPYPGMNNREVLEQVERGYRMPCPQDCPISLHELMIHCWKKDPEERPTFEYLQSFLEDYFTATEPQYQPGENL
UniProt P49840: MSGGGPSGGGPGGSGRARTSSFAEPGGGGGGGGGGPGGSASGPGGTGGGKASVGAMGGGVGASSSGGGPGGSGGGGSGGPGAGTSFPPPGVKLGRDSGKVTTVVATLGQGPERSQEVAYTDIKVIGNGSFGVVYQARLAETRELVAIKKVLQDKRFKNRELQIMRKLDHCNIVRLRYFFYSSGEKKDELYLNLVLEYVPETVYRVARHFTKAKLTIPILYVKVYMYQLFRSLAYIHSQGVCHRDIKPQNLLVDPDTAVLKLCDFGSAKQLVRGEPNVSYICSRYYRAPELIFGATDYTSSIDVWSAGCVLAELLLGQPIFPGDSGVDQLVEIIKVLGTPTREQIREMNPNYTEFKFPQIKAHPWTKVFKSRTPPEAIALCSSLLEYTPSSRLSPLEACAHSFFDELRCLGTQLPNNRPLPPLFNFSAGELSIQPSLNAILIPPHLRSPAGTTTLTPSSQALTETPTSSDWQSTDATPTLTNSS
UniProt P14616: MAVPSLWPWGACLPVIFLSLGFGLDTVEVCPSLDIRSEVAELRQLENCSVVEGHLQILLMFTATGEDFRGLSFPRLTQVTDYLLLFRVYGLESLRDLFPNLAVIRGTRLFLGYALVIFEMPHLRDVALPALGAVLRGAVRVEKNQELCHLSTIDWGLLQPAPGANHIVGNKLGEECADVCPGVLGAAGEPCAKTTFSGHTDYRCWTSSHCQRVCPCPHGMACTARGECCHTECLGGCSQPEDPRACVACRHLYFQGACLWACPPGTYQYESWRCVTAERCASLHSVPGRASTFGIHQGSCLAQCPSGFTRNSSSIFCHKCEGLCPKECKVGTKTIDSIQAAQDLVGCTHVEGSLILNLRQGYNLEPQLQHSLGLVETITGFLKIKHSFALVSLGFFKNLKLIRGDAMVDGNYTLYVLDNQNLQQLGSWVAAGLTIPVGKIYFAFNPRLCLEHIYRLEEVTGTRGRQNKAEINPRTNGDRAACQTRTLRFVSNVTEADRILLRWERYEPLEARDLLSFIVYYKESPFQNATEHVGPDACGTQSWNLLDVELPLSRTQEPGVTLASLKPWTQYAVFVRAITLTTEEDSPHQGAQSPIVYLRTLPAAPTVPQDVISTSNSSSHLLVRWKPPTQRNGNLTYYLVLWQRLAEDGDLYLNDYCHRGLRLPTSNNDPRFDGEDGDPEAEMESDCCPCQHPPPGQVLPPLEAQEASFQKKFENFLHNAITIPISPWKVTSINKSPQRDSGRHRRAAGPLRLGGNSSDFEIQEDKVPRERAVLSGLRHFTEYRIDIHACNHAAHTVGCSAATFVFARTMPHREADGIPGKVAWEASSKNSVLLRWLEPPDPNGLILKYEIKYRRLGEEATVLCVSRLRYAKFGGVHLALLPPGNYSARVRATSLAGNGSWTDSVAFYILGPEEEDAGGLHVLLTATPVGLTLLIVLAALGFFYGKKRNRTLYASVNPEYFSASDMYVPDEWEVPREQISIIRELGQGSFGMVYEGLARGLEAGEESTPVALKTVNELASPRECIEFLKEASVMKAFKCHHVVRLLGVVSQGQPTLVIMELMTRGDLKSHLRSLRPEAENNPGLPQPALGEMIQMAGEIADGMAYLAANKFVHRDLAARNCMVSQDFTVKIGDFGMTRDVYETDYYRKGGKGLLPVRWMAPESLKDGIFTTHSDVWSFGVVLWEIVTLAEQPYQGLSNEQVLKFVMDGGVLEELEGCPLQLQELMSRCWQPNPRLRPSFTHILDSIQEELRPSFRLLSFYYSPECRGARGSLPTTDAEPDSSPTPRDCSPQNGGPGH

Legend:
Experiment in all cases: kinase-Nluc reporter destabilization hit call (1 = scored as downregulated) (binary); higher = compound decreases kinase abundance
Conditions in all cases: K562; 2-18 h
EGFR = EGFR (UniProt P00533)
EGFR_G719S = EGFR_G719S (UniProt P00533)
EGFR_G719S_T790M = EGFR_G719S_T790M (UniProt P00533)
EGFR_L718V = EGFR_L718V (UniProt P00533)
EGFR_L858R = EGFR_L858R (UniProt P00533)
EGFR_L861Q = EGFR_L861Q (UniProt P00533)
EGFR_T790M = EGFR_T790M (UniProt P00533)
EPHA2 = EPHA2 (UniProt P29317)
ERBB3 = ERBB3 (UniProt P21860)
[1] = biological target: ERBB4_R711C (clone: ERBB4_mut) (UniProt Q15303)
ERN1 = ERN1 (UniProt O75460)
FGFR1 = FGFR1 (UniProt P11362)
FGFR2 = FGFR2 (UniProt P21802)
FGFR3 = FGFR3 (UniProt P22607)
FGR = FGR (UniProt P09769)
FLT3 = FLT3 (UniProt P36888)
FYN = FYN (UniProt P06241)
GSK3A = GSK3A (UniProt P49840)
HER2 = HER2 (UniProt P04626)
INSRR = INSRR (UniProt P14616)

Measured: kinase-Nluc reporter destabilization hit call

COc1ccc(Cn2cc(C(=O)N=Nc3c(O)[nH]c4c(C)cccc34)nn2)cc1 [MARK4 inhibitor 1] (10 µM)
inactive: EGFR 0 | EGFR_G719S 0 | EGFR_G719S_T790M 0 | EGFR_L718V 0 | EGFR_L858R 0 | EGFR_L861Q 0 | EGFR_T790M 0 | EPHA2 = 0 | ERBB3 = 0 | [1] 0 | ERN1 = 0 | FGFR1 = 0 | FGFR2 = 0 | FGFR3 = 0 | FGR 0 | FLT3 = 0 | FYN 0 | GSK3A 0 | HER2 = 0 | INSRR 0

O=C(O)c1cc(O)ccc1O [2,5-Dihydroxybenzoic acid] (10 µM)
inactive: EGFR 0 | EGFR_G719S 0 | EGFR_G719S_T790M 0 | EGFR_L718V 0 | EGFR_L858R 0 | EGFR_L861Q 0 | EGFR_T790M 0 | EPHA2 = 0 | ERBB3 = 0 | [1] 0 | ERN1 = 0 | FGFR1 = 0 | FGFR2 = 0 | FGFR3 = 0 | FGR 0 | FLT3 = 0 | FYN 0 | GSK3A 0 | HER2 = 0 | INSRR 0

CC(C)NC(=O)N1CC[C@H](NC2=Nc3cc(F)ccc3N(CC(F)F)c3ccc(Cl)cc32)C1 (10 µM)
inactive: EGFR 0 | EGFR_G719S 0 | EGFR_G719S_T790M 0 | EGFR_L718V 0 | EGFR_L858R 0 | EGFR_L861Q 0 | EGFR_T790M 0 | EPHA2 = 0 | ERBB3 = 0 | [1] 0 | ERN1 = 0 | FGFR1 = 0 | FGFR2 = 0 | FGFR3 = 0 | FGR 0 | FLT3 = 0 | FYN 0 | GSK3A 0 | HER2 = 0 | INSRR 0

Cn1cc(-c2ccc(CNc3cc(-c4cnc5cc(OCCCN6CCCC6)ccn45)ncn3)cc2)cn1 (10 µM)
inactive: EGFR 0 | EGFR_G719S 0 | EGFR_G719S_T790M 0 | EGFR_L718V 0 | EGFR_L858R 0 | EGFR_L861Q 0 | EGFR_T790M 0 | EPHA2 = 0 | ERBB3 = 0 | [1] 0 | ERN1 = 0 | FGFR1 = 0 | FGFR2 = 0 | FGFR3 = 0 | FGR 0 | FLT3 = 0 | FYN 0 | GSK3A 0 | HER2 = 0 | INSRR 0

O=C(NCCCNC(=O)Nc1cccc(C2=NCCN2)c1)Nc1cccc(C2=NCCN2)c1 [p32 Inhibitor M36] (10 µM)
inactive: EGFR 0 | EGFR_G719S 0 | EGFR_G719S_T790M 0 | EGFR_L718V 0 | EGFR_L858R 0 | EGFR_L861Q 0 | EGFR_T790M 0 | EPHA2 = 0 | ERBB3 = 0 | [1] 0 | ERN1 = 0 | FGFR1 = 0 | FGFR2 = 0 | FGFR3 = 0 | FGR 0 | FLT3 = 0 | FYN 0 | GSK3A 0 | HER2 = 0 | INSRR 0

O=C(CNC(=O)c1ccc(-c2ccccc2)cc1)NC1CCCc2ccccc21 (stereo not given) [TAO Kinase inhibitor 1] (10 µM)
inactive: EGFR 0 | EGFR_G719S 0 | EGFR_G719S_T790M 0 | EGFR_L718V 0 | EGFR_L858R 0 | EGFR_L861Q 0 | EGFR_T790M 0 | EPHA2 = 0 | ERBB3 = 0 | [1] 0 | ERN1 = 0 | FGFR1 = 0 | FGFR2 = 0 | FGFR3 = 0 | FGR 0 | FLT3 = 0 | FYN 0 | GSK3A 0 | HER2 = 0 | INSRR 0

CC1=C2C(=O)O[C@@H](c3ccoc3)[C@]2(C)CCC1 [Fraxinellone] (10 µM)
inactive: EGFR 0 | EGFR_G719S 0 | EGFR_G719S_T790M 0 | EGFR_L718V 0 | EGFR_L858R 0 | EGFR_L861Q 0 | EGFR_T790M 0 | EPHA2 = 0 | ERBB3 = 0 | [1] 0 | ERN1 = 0 | FGFR1 = 0 | FGFR2 = 0 | FGFR3 = 0 | FGR 0 | FLT3 = 0 | FYN 0 | GSK3A 0 | HER2 = 0 | INSRR 0

CCOc1ccc(C(=O)Nc2ncc([N+](=O)[O-])s2)cc1 (10 µM)
inactive: EGFR 0 | EGFR_G719S 0 | EGFR_G719S_T790M 0 | EGFR_L718V 0 | EGFR_L858R 0 | EGFR_L861Q 0 | EGFR_T790M 0 | EPHA2 = 0 | ERBB3 = 0 | [1] 0 | ERN1 = 0 | FGFR1 = 0 | FGFR2 = 0 | FGFR3 = 0 | FGR 0 | FLT3 = 0 | FYN 0 | GSK3A 0 | HER2 = 0 | INSRR 0

COc1ccc(-c2ccc3c(N4CCOC[C@@H]4C)nc(N4CCOC[C@@H]4C)nc3n2)cc1CO (2.5 µM)
inactive: EGFR 0 | EGFR_G719S 0 | EGFR_G719S_T790M 0 | EGFR_L718V 0 | EGFR_L858R 0 | EGFR_L861Q 0 | EGFR_T790M 0 | EPHA2 = 0 | ERBB3 = 0 | [1] 0 | ERN1 = 0 | FGFR1 = 0 | FGFR2 = 0 | FGFR3 = 0 | FGR 0 | FLT3 = 0 | FYN 0 | GSK3A 0 | HER2 = 0 | INSRR 0

N#Cc1cccc(-c2c[nH]c3ncnc(N4CCOCC4)c23)c1 (10 µM)
inactive: EGFR 0 | EGFR_G719S 0 | EGFR_G719S_T790M 0 | EGFR_L718V 0 | EGFR_L858R 0 | EGFR_L861Q 0 | EGFR_T790M 0 | EPHA2 = 0 | ERBB3 = 0 | [1] 0 | ERN1 = 0 | FGFR1 = 0 | FGFR2 = 0 | FGFR3 = 0 | FGR 0 | FLT3 = 0 | FYN 0 | GSK3A 0 | HER2 = 0 | INSRR 0

C=CC(=O)Nc1ccc(CN(C(=O)Nc2c(Cl)c(OC)cc(OC)c2Cl)c2cc(Nc3ccc(N4CCN(C)CC4)cc3)ncn2)cc1 (10 µM)
inactive: EGFR 0 | EGFR_G719S 0 | EGFR_G719S_T790M 0 | EGFR_L718V 0 | EGFR_L858R 0 | EGFR_L861Q 0 | EGFR_T790M 0 | EPHA2 = 0 | ERBB3 = 0 | [1] 0 | ERN1 = 0 | FGFR1 = 0 | FGFR2 = 0 | FGFR3 = 0 | FGR 0 | FLT3 = 0 | FYN 0 | GSK3A 0 | HER2 = 0 | INSRR 0

Cc1c(CN2CCN(S(C)(=O)=O)CC2)sc2c(N3CCOCC3)nc(-c3cnc(N)nc3)nc12 (2.5 µM)
inactive: EGFR 0 | EGFR_G719S 0 | EGFR_G719S_T790M 0 | EGFR_L718V 0 | EGFR_L858R 0 | EGFR_L861Q 0 | EGFR_T790M 0 | EPHA2 = 0 | ERBB3 = 0 | [1] 0 | ERN1 = 0 | FGFR1 = 0 | FGFR2 = 0 | FGFR3 = 0 | FGR 0 | FLT3 = 0 | FYN 0 | GSK3A 0 | HER2 = 0 | INSRR 0

CN(C)CCN(Cc1ccc(Cl)cc1)c1ccccn1 [Chloropyramine hydrochloride] (10 µM)
inactive: EGFR 0 | EGFR_G719S 0 | EGFR_G719S_T790M 0 | EGFR_L718V 0 | EGFR_L858R 0 | EGFR_L861Q 0 | EGFR_T790M 0 | EPHA2 = 0 | ERBB3 = 0 | [1] 0 | ERN1 = 0 | FGFR1 = 0 | FGFR2 = 0 | FGFR3 = 0 | FGR 0 | FLT3 = 0 | FYN 0 | GSK3A 0 | HER2 = 0 | INSRR 0

Cc1ccc(S(=O)(=O)Nc2ccccc2C=Nc2ccccc2NS(=O)(=O)c2ccc(C)cc2)cc1 (10 µM)
inactive: EGFR 0 | EGFR_G719S 0 | EGFR_G719S_T790M 0 | EGFR_L718V 0 | EGFR_L858R 0 | EGFR_L861Q 0 | EGFR_T790M 0 | EPHA2 = 0 | ERBB3 = 0 | [1] 0 | ERN1 = 0 | FGFR1 = 0 | FGFR2 = 0 | FGFR3 = 0 | FGR 0 | FLT3 = 0 | FYN 0 | GSK3A 0 | HER2 = 0 | INSRR 0

COc1cc(F)c(F)c(Nc2ccc(I)cc2F)c1NS(=O)(=O)C1(C[C@H](O)CO)CC1 [Refametinib] (10 µM)
inactive: EGFR 0 | EGFR_G719S 0 | EGFR_G719S_T790M 0 | EGFR_L718V 0 | EGFR_L858R 0 | EGFR_L861Q 0 | EGFR_T790M 0 | EPHA2 = 0 | ERBB3 = 0 | [1] 0 | ERN1 = 0 | FGFR1 = 0 | FGFR2 = 0 | FGFR3 = 0 | FGR 0 | FLT3 = 0 | FYN 0 | GSK3A 0 | HER2 = 0 | INSRR 0

Fc1ccc(-c2nc(-c3c(F)cccc3F)[nH]c2-c2ccncc2)cc1 (10 µM)
inactive: EGFR 0 | EGFR_G719S 0 | EGFR_G719S_T790M 0 | EGFR_L718V 0 | EGFR_L858R 0 | EGFR_L861Q 0 | EGFR_T790M 0 | EPHA2 = 0 | ERBB3 = 0 | [1] 0 | ERN1 = 0 | FGFR1 = 0 | FGFR2 = 0 | FGFR3 = 0 | FGR 0 | FLT3 = 0 | FYN 0 | GSK3A 0 | HER2 = 0 | INSRR 0

NC1(Cc2ccc(Cl)cc2)CCN(c2ncnc3[nH]ccc23)CC1 (10 µM)
inactive: EGFR 0 | EGFR_G719S 0 | EGFR_G719S_T790M 0 | EGFR_L718V 0 | EGFR_L858R 0 | EGFR_L861Q 0 | EGFR_T790M 0 | EPHA2 = 0 | ERBB3 = 0 | [1] 0 | ERN1 = 0 | FGFR1 = 0 | FGFR2 = 0 | FGFR3 = 0 | FGR 0 | FLT3 = 0 | FYN 0 | GSK3A 0 | HER2 = 0 | INSRR 0

CN1CCN(c2ccc(Nc3ncc4nc(Nc5ccccc5)n([C@@H]5CCN(S(=O)(=O)C6CC6)C5)c4n3)cc2)CC1 (2.5 µM)
inactive: EGFR 0 | EGFR_G719S 0 | EGFR_G719S_T790M 0 | EGFR_L718V 0 | EGFR_L858R 0 | EGFR_L861Q 0 | EGFR_T790M 0 | EPHA2 = 0 | ERBB3 = 0 | [1] 0 | ERN1 = 0 | FGFR1 = 0 | FGFR2 = 0 | FGFR3 = 0 | FGR 0 | FLT3 = 0 | FYN 0 | GSK3A 0 | HER2 = 0 | INSRR 0

Fetched by structure from the list above, two records:
N#Cc1cccc(-c2c[nH]c3ncnc(N4CCOCC4)c23)c1 (10 µM)
inactive: EGFR 0 | EGFR_G719S 0 | EGFR_G719S_T790M 0 | EGFR_L718V 0 | EGFR_L858R 0 | EGFR_L861Q 0 | EGFR_T790M 0 | EPHA2 = 0 | ERBB3 = 0 | [1] 0 | ERN1 = 0 | FGFR1 = 0 | FGFR2 = 0 | FGFR3 = 0 | FGR 0 | FLT3 = 0 | FYN 0 | GSK3A 0 | HER2 = 0 | INSRR 0

O=C(O)c1cc(O)ccc1O [2,5-Dihydroxybenzoic acid] (10 µM)
inactive: EGFR 0 | EGFR_G719S 0 | EGFR_G719S_T790M 0 | EGFR_L718V 0 | EGFR_L858R 0 | EGFR_L861Q 0 | EGFR_T790M 0 | EPHA2 = 0 | ERBB3 = 0 | [1] 0 | ERN1 = 0 | FGFR1 = 0 | FGFR2 = 0 | FGFR3 = 0 | FGR 0 | FLT3 = 0 | FYN 0 | GSK3A 0 | HER2 = 0 | INSRR 0
